Values quoted from earlier work in patent publication US20200071310A1, “N-ARYL PYRAZOLES AS NRF2 REGULATORS” (GLAXOSMITHKLINE INTELLECTUAL PROPERTY DEVELOPMENT LIMITED, priority 2016, published 2020).
For at least one compound, name, drawing or mass did not settle the structure.

System: diabetic nephropathy/chronic kidney disease (CKD)
Conditions: in the clinic; cited from earlier work

For `COC(=O)[C@]12CCC(C)(C)C[C@H]1[C@H]1C(=O)C=C3[C@@]4(C)C=C(C#N)C(=O)C(C)(C)[C@@H]4CC[C@@]3(C)[C@]1(C)CC2` [bardoxolone methyl], the “efficacy in diabetic patients with diabetic nephropathy/chronic kidney disease (CKD)” value is given as “has shown efficacy”.
